From paper PMC8269334
These are yes or no findings as the source states them, for the method shown. In cells and extracts the contact can be indirect. For part of these data: A result given as binding can be weak or reduced; the word gives no strength.

Sequences of proteins named here, by UniProt entry; tags and fusion partners are left off. A change or cut given only in a name is not applied to a line headed by its entry.
UniProt P06748: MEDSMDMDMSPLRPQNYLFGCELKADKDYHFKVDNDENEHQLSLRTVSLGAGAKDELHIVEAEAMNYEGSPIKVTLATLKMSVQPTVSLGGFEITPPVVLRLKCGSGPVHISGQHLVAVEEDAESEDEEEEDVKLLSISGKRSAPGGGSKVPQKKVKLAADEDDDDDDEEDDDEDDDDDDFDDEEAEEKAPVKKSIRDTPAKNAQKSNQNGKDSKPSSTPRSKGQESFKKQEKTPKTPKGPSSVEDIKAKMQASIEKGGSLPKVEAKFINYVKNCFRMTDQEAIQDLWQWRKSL

Key:
Assay in all cases: co-IP; GFP-Trap_A beads on lysates of HEK-293T cells transfected with one eGFP-tagged construct; lysis in 10 mM Tris/Cl pH 7.5, 150 mM NaCl, 0.5 mM EDTA, 0.5% NP-40; 1 h at 4 °C; co-precipitated endogenous proteins detected by immunoblotting
eGFP_Δ117NPMmutA (human) = eGFP_Δ117NPMmutA (human) (UniProt P06748)
eGFP_NPMmutA (human) = eGFP_NPMmutA (human) (UniProt P06748)
[1] = molecular target: eGFP-labeled NPMmutE (human) (UniProt P06748)

binding (eGFP_Δ117NPMmutA (human)): no binding
binding (eGFP_NPMmutA (human)): binds
binding [1]: binds
Substance: endogenous NPM (HEK-293T) (from UniProt P06748 1-294)
